Measurements reported in publication PMC12313907.
These are yes or no findings as the source states them, for the method shown. Binding seen in cells or lysates may run through a third protein. A yes stands for co-enrichment or nearness to the bait. Other partners may have been found.

Protein sequences, listed by entry. Tags and fused reporters are not part of them. Lines headed by an entry give the natural chain unless they say otherwise; changes in a name come on top.
UniProt Q99873: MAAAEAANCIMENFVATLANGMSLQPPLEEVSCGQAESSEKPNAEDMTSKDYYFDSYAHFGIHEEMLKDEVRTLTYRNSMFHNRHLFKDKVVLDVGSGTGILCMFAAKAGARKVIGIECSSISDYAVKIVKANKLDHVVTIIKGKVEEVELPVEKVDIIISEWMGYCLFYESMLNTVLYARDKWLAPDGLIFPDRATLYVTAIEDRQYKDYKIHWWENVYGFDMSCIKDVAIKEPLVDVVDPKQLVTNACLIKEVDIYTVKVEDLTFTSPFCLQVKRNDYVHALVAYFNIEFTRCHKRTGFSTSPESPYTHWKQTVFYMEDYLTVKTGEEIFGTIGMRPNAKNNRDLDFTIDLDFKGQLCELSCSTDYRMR
UniProt P61081: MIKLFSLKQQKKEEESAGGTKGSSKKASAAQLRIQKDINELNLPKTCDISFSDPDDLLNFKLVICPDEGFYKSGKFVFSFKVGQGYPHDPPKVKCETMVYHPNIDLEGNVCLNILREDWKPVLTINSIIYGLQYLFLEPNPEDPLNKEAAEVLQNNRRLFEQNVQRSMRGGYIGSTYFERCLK

Target: FLAG-PRMT1 (UniProt Q99873)
Experiment: affinity purification with mass spectrometry; FLAG beads on lysates of HK-2 cells expressing FLAG-PRMT1; SDS-PAGE, LC-MS; fold change >4 against control taken as interactor

In the case of “Ubiquitin-conjugating enzyme E2M (UBE2m), endogenous in HK-2 cells (from UniProt P61081 1-183)”, the binding is reported as “binds”.
